No constants are given. Whether binding was seen depends on the method and setting. In cells and extracts the contact can be indirect. Some entries that bind do so weakly or less than the wild type.
Legend:
[1] = target: Flag-tagged TACC2 (transforming acidic coiled-coil protein 2) (human) (UniProt O95359); test: co-IP; KYSE30 cell lysates, immunoprecipitation with anti-Flag, immunoblot for endogenous EphA2; IP lysis buffer 50 mM Tris-HCl pH 7.4, 150 mM NaCl, 0.6% NP-40, 5 mM EDTA, overnight at 4 °C
[2] = target: Flag-tagged PLEKHA1 (pleckstrin homology domain containing family A member 1) (human) (UniProt Q9HB21); test: as above
[3] = target: T1, N-terminal PH (PH1) domain (aa 7-112) of PLEKHA1 (human) (UniProt Q9HB21); test: co-IP; co-IP of the PH1 domain of PLEKHA1 and EphA2 (Fig. S4A); cells and tags not shown
T1 sequence: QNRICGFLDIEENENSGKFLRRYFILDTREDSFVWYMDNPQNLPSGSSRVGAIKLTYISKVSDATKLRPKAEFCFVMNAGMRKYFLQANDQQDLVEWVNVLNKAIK

The chains behind the UniProt entries cited, without tags or fusion partners. Where a name states a change or a piece, a line headed by the entry shows the natural chain unless it says otherwise. Residues count along the entry.
UniProt O95359: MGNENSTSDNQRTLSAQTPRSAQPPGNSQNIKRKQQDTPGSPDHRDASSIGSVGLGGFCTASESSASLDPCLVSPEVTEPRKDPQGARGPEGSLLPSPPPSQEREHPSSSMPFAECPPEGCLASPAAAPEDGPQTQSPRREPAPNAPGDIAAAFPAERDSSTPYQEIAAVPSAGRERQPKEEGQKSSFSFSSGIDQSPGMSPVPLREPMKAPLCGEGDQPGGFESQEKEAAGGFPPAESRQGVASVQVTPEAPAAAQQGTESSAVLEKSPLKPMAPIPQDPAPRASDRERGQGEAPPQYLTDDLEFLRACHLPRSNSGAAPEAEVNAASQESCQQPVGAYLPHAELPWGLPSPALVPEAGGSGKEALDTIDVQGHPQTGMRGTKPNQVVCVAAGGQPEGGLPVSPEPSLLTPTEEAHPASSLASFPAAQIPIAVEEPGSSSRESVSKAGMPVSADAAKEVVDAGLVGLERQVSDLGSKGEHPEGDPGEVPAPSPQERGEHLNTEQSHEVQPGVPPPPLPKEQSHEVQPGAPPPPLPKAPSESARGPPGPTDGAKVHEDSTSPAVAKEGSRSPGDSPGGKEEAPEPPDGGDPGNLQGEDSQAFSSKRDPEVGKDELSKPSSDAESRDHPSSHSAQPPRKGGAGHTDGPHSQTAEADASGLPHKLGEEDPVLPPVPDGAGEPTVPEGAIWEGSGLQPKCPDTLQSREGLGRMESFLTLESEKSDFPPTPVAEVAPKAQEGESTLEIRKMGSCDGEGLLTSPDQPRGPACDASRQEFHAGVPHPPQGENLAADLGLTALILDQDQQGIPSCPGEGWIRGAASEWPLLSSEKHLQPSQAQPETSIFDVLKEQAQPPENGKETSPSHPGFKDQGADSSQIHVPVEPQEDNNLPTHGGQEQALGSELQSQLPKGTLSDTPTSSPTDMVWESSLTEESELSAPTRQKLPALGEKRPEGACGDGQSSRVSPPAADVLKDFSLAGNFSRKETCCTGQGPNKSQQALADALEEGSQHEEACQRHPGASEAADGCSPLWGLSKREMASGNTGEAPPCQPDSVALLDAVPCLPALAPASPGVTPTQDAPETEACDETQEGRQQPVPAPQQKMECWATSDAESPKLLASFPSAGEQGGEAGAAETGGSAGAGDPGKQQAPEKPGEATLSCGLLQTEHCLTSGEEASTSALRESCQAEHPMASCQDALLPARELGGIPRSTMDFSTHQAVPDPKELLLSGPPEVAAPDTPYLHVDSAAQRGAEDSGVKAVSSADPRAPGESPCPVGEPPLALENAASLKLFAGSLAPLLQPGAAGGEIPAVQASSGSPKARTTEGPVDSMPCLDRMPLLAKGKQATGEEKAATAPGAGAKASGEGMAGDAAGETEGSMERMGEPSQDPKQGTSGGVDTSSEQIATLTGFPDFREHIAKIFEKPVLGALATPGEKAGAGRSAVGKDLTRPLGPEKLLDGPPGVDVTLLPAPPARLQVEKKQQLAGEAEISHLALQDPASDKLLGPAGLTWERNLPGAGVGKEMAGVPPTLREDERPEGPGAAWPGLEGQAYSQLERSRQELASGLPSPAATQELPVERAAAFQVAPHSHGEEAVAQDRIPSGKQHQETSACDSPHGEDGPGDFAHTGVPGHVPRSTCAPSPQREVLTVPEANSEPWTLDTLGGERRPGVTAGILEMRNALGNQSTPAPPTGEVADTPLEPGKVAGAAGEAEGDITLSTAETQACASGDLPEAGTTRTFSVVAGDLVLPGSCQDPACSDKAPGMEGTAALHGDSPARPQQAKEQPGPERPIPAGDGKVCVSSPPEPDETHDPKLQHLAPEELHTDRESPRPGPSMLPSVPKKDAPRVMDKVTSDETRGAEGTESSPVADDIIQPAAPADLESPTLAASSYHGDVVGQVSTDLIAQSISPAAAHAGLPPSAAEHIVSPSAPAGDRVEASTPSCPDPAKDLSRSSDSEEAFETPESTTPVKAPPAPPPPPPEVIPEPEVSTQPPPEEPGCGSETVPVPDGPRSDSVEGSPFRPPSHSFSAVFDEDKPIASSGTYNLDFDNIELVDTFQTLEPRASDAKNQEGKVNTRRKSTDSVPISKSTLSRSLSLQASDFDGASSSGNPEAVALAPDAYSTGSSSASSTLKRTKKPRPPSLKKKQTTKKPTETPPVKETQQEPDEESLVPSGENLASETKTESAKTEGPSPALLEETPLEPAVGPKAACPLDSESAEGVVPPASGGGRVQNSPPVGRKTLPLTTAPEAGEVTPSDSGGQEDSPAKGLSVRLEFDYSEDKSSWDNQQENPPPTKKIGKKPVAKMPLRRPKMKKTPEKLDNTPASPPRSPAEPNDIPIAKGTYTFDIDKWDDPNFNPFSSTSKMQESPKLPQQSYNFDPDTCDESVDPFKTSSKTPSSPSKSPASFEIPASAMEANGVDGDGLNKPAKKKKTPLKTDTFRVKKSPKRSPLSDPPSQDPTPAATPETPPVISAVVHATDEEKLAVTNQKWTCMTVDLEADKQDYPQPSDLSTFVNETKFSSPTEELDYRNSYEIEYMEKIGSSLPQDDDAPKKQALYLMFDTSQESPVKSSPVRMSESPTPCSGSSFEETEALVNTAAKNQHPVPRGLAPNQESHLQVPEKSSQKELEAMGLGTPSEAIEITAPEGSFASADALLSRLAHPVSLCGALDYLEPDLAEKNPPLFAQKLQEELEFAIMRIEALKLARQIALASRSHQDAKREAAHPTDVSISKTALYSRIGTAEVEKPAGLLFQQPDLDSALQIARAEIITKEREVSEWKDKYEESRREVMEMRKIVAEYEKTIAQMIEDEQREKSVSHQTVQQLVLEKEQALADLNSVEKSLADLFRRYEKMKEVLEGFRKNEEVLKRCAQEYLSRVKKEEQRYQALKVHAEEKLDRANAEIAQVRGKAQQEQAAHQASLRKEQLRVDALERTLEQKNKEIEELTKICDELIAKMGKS
UniProt P29317, residues 24-976: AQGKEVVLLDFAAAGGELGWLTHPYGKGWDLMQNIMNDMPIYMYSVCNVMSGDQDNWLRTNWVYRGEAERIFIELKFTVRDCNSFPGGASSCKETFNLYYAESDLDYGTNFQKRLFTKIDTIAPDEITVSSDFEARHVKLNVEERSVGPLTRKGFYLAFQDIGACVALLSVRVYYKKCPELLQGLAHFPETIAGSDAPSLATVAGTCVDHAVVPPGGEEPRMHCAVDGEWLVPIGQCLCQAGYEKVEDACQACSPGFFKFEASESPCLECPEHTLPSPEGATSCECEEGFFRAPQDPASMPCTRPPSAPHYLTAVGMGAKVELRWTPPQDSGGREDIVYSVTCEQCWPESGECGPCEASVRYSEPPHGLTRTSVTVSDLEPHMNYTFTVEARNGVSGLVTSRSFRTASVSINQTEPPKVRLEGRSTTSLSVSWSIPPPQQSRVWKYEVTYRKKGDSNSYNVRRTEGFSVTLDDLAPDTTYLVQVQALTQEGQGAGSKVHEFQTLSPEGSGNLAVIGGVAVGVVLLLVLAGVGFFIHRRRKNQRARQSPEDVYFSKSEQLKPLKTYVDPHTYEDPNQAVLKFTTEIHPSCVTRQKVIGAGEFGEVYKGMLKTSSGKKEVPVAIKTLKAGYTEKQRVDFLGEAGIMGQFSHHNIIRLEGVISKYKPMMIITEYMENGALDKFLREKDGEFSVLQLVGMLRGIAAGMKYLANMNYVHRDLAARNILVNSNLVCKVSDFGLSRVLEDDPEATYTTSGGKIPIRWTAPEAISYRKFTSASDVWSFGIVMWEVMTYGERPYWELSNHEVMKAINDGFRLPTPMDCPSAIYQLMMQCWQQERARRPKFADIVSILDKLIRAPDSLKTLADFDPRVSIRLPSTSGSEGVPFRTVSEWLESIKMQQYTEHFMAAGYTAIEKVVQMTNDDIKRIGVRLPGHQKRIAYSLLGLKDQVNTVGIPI

| binding [1] | binding [2] | binding [3] | Substance |
| --- | --- | --- | --- |
| no binding | no binding | – | endogenous EphA2 (from UniProt P29317 24-976) (receptor) |
| – | – | binds | EphA2 as used in the co-IP with the PH1 domain (Fig. S4A) (from UniProt P29317 24-976) (receptor) |

Reference: article PMC12669629
